This series deals with endogenous metabolites. As to the kind of experiment: Metabolomics: dynamic response of endogenous metabolites in rat plasma after oral RB-RPA (UPLC-HRMS, PCA/PLS-DA/OPLS-DA, relative distance). It counts as in vivo, Sprague-Dawley rats. Particulars: mean ± SD, n = 6.

Consider `Cc1cn([C@H]2C[C@H](O)[C@@H](COP(=O)(O)O)O2)c(=O)[nH]c1=O` [Thymidine 5'-monophosphate], for which the “level of endogenous metabolite normalized by IS (glycyrrhizin)” value runs as follows: (0.083 h after oral RB-RPA) 0.121±0.034; (0.5 h after oral RB-RPA) 0.157±0.042; (0.75 h after oral RB-RPA) 0.128±0.036; (1 h after oral RB-RPA) 0.119±0.042; (1.5 h after oral RB-RPA) 0.123±0.039; (3 h after oral RB-RPA) 0.114±0.027. The “level of endogenous metabolite normalized by IS (glycyrrhizin)” value runs as follows: (5 h after oral RB-RPA) 0.126±0.033; (8 h after oral RB-RPA) 0.119±0.029; (12 h after oral RB-RPA) 0.133±0.042; (24 h after oral RB-RPA) 0.139±0.038.

Take `N[C@@H](CCC(=O)O)C(=O)O` [L-Glutamic acid]: the “level of endogenous metabolite normalized by IS (glycyrrhizin)” value reads like this: (0.083 h after oral RB-RPA) 0.242±0.033; (0.5 h after oral RB-RPA) 0.294±0.038; (1 h after oral RB-RPA) 0.399±0.051; (1.5 h after oral RB-RPA) 0.378±0.072; (3 h after oral RB-RPA) 0.449±0.051; (5 h after oral RB-RPA) 0.456±0.066. For the same compound, the “level of endogenous metabolite normalized by IS (glycyrrhizin)” value runs as follows: (8 h after oral RB-RPA) 0.476±0.083; (12 h after oral RB-RPA) 0.418±0.079; (24 h after oral RB-RPA) 0.375±0.067.

`O=C(O)c1ccccn1` [Picolinic acid]: the “level of endogenous metabolite normalized by IS (glycyrrhizin)” value runs as follows: (0.083 h after oral RB-RPA) 0.023±0.006; (0.5 h after oral RB-RPA) 0.039±0.011; (0.75 h after oral RB-RPA) 0.046±0.014; (1 h after oral RB-RPA) 0.041±0.022; (1.5 h after oral RB-RPA) 0.033±0.009; (3 h after oral RB-RPA) 0.043±0.013. The “level of endogenous metabolite normalized by IS (glycyrrhizin)” value came to 0.031±0.010 (5 h after oral RB-RPA), 0.023±0.009 (8 h after oral RB-RPA), 0.016±0.007 (12 h after oral RB-RPA) and 0.019±0.008 (24 h after oral RB-RPA).

For the compound `NC(Cc1c[nH]c2ccccc12)C(=O)O` (racemic) [DL-Tryptophan], the “level of endogenous metabolite normalized by IS (glycyrrhizin)” value (0.083 h after oral RB-RPA) was determined as 0.018±0.006; the “level of endogenous metabolite normalized by IS (glycyrrhizin)” value (0.5 h after oral RB-RPA) is on record as 0.009±0.002; the “level of endogenous metabolite normalized by IS (glycyrrhizin)” value (0.75 h after oral RB-RPA) amounted to 0.006±0.003; the “level of endogenous metabolite normalized by IS (glycyrrhizin)” value (1 h after oral RB-RPA) is recorded as 0.010±0.005; the “level of endogenous metabolite normalized by IS (glycyrrhizin)” value (1.5 h after oral RB-RPA) is 0.006±0.002; the “level of endogenous metabolite normalized by IS (glycyrrhizin)” value (3 h after oral RB-RPA) turned out to be 0.009±0.003. Besides, the “level of endogenous metabolite normalized by IS (glycyrrhizin)” value is given as 0.008±0.001 (5 h after oral RB-RPA), 0.012±0.004 (8 h after oral RB-RPA), 0.008±0.002 (12 h after oral RB-RPA) and 0.014±0.005 (24 h after oral RB-RPA).

With `NC(=O)CCC(N)C(=O)O` (racemic) [DL-Glutamine], the “level of endogenous metabolite normalized by IS (glycyrrhizin)” value turned out to be 0.144±0.023 (0.083 h after oral RB-RPA); 0.165±0.071 (0.5 h after oral RB-RPA); 0.074±0.022 (0.75 h after oral RB-RPA); 0.061±0.008 (1 h after oral RB-RPA); 0.066±0.012 (1.5 h after oral RB-RPA); 0.048±0.009 (3 h after oral RB-RPA). In addition, the “level of endogenous metabolite normalized by IS (glycyrrhizin)” value is, setting by setting: (5 h after oral RB-RPA) 0.131±0.097; (8 h after oral RB-RPA) 0.033±0.006; (12 h after oral RB-RPA) 0.061±0.009; (24 h after oral RB-RPA) 0.085±0.012.

The record behind these values is PMC7982521, “Studies on the Changes of Pharmacokinetics Behaviors of Phytochemicals and the Influence on Endogenous Metabolites After the Combination of Radix Bupleuri and Radix Paeoniae Alba Based on Multi-Component Pharmacokinetics and Metabolomics” (Frontiers in Pharmacology, 2021).
